Where a chain is given by its changes, count along the chain named. Results are given in words; binding and its absence hold for the method and conditions named. A result given as binding can be weak or reduced; the word gives no strength.
B1: humanized 15F7 variant H2L1 (Hu15F7VHv2/Hu15F7VLv1) (antibody, V domains shown)
VH: EVQLQQSGAEVKKPGSSVKLSCKASGYTFTSYGLSWVKQRPGQGLEWIGEIFPRSGNTYYNEKFKGKATITADKSSSTAYMELRSLRSEDTAVYFCARGVRSPGAMDYWGQGTLVTVSS
VL: DIQMTQSSSSLSASVGDRVTITCKASEDIYNRLAWYQQKPGNAPRLLISGATSLETGVPSRFSGSGSGKDYTLTISSLQTEDFATYYCQQYWSIPYTFGGGTKLEIKR
B2: chimeric 15F7 (antibody, V domains shown)
VH: QVQLQQSGTELARPGAAVKLSCKASGYTFTSYGLSWVKQRAGQGLEWIGEIFPRSGNTYYNEKFKGKATLTADKSSSTAYMELRSLTSEDSAVYFCARGVRSPGAMDYWGQGTSVTVSS
VL: B1 VL with L11F, A13V, V15L, T74S, S76T, F83V, K103N
B3: humanized 15F7 variant H1L1 (Hu15F7VHv1/Hu15F7VLv1) (antibody, V domains shown)
VH: B1 VH with P41A, I70L
VL: B1 VL
B4: mouse monoclonal antibody 15F7 (antibody, V domains shown)
VH: B2 VH
VL: B1 VL with L11F, A13V, V15L, T74S, S76T, F83V, K103N
B5: humanized 15F7 variant H1L2 (Hu15F7VHv1/Hu15F7VLv2) (antibody, V domains shown)
VH: B1 VH with P41A, I70L
VL: B1 VL with S8P, R45K, Y71F, T80P, L104V
B6: humanized 15F7 variant H2L2 (Hu15F7VHv2/Hu15F7VLv2) (antibody, V domains shown)
VH: B1 VH
VL: B1 VL with S8P, R45K, Y71F, T80P, L104V
B7: mouse monoclonal antibody 13G10 (antibody, V domains shown)
VH: QVQLQQSGAELARPGASVKLSCKASGYTFTNYGISWVKQRTGQGLEWIGAIYPRSGNTYYNEKFKGKATLTADKSSSTAYMELRSLTSEDSAVYFCARERDYGSSYALDYWGQGTSVTVSS
VL: B1 VL with L11F, A13V, V15L, S63T, T74S, S76T, F83V, I94P, Y96R

target: LAMA4 / purified His-LAMA4 (species not stated); test: ForteBio; anti-His sensor loaded with His-LAMA4 at 10 ug/ml, antibody at 5 ug/ml

binding, binds:
B1
B2
B3
B4
B5
B6

target: LAMA4 / purified His-LAMA4 (species not stated); test: ForteBio; goat anti-human Fc sensor loaded with antibody at 5 ug/ml, His-LAMA4 at 10 ug/ml

binding, binds:
B1
B2
B3
B5
B6

target: LAMA4 / purified His-LAMA4 (species not stated); test: BLI (ForteBio); anti-His sensor with His-LAMA4 then antibody, and anti-human Fc sensor with antibody then His-LAMA4

binding, binds:
B1
B2
B3
B4
B5
B6

target: LAMA4 / purified His-LAMA4 (species not stated); test: SPR (Biacore)

binding, binds:
B1
B3

target: LAMA4 / purified His-LAMA4 (species not stated); test: BLI (ForteBio; antibody at 100 nM, LAMA4 concentration varied) and SPR (Biacore)

binding, binds:
B4

target: LAMA4 / purified His-LAMA4 (species not stated); test: ForteBio; antibody constant at 100 nM, LAMA4 at 3.125 to 200 nM; raw and fitted lines

binding, binds:
B7
B4

Source: patent US20150259408A1
